Data: US20170082633A1
No constants are given. Whether binding was seen depends on the method and setting. Some entries that bind do so weakly or less than the wild type. Tags and fused reporters may be left off the sequences shown.

Chains of the proteins cited; added tags and fusions are not shown. Residues count along the entry.
UniProt Q7L523: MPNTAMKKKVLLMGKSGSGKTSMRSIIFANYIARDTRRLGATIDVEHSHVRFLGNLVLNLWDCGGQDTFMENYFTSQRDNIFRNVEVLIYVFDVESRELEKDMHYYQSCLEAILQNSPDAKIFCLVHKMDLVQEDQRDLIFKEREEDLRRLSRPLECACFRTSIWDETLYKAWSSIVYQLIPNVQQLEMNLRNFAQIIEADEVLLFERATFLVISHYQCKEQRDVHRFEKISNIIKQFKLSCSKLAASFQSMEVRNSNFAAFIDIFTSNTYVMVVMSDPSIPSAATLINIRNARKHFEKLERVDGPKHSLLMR
UniProt Q9HB90, residues 2-399: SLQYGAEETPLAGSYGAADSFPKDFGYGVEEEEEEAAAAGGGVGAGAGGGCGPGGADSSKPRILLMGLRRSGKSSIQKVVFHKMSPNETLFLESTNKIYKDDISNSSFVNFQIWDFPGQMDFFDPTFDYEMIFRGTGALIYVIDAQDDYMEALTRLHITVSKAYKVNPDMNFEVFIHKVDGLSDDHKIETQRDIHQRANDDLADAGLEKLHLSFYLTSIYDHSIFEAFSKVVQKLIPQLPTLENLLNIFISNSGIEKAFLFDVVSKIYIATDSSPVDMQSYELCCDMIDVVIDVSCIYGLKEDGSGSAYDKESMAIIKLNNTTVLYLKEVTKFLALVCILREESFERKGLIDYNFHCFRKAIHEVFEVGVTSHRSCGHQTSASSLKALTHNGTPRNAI

Experiments:
Experiment in all cases: FLAG IP from transfected HEK-293T cells, immunoblot
endogenous RagA = endogenous RagA (UniProt Q7L523)
endogenous p18 = endogenous p18 (UniProt Q6IAA8)
endogenous p14 = endogenous p14 (UniProt Q9Y2Q5)
endogenous RagC = endogenous RagC (UniProt Q9HB90)

Measured: binding

B1: FLAG-SLC38A9.1 H60A (protein)
single chain: MANMNSDSRHLGTSEVDHERDPGPMNIQFEPSDLRSKRPFCIEPTNIVNVNHVIQRVSDAASAMNKRIHYYSRLTTPADKALIAPDHVVPAPEECYVYSPLGSAYKLQSYTEGYGKNTSLVTIFMIWNTMMGTSILSIPWGIKQAGFTTGMCVIILMGLLTLYCCYRVVKSRTMMFSLDTTSWEYPDVCRHYFGSFGQWSSLLFSLVSLIGAMIVYWVLMSNFLFNTGKFIFNFIHHINDTDTILSTNNSNPVICPSAGSGGHPDNSSMIFYANDTGAQQFEKWWDKSRTVPFYLVGLLLPLLNFKSPSFFSKFNILGTVSVLYLIFLVTFKAVRLGFHLEFHWFIPTEFFVPEIRFQFPQLTGVLTLAFFIHNCIITLLKNNKKQENNVRDLCIAYMLVTLTYLYIGVLVFASFPSPPLSKDCIEQNFLDNFPSSDTLSFIARIFLLFQMMTVYPLLGYLARVQLLGHIFGDIYPSIFHVLILNLIIVGAGVIMACFYPNIGGIIRYSGAACGLAFVFIYPSLIYIISLHQEERLTWPKLIFHVFIIILGVANLIVQFFM
binds: all assays above
